ClpP1P2: 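Protease assay of ClpP1P2, read by the AMC dye that it sets free. Target: ClpP1P2, Mycobacterium tuberculosis (UniProt P9WPC5 and UniProt P9WPC3). Compounds at 50 µM. Higher reads as stronger inhibition, judged from the few compounds that gave an IC50. Most other retested compounds had strongly negative values. About 69,000 compounds were tested under these conditions; 0.015% (about 10) showed 50% or more at least once.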
Toxoplasma: 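Assay of Toxoplasma gondii numbers, read through their beta-galactosidase reporter with a colour substrate. Compounds at 10 µM. The record gives no direction; the compounds picked for IC50 retests had high values, so higher reads as fewer parasites. Of about 67,000 compounds tested this way, about 260 (0.38%) reached 50% or more in at least one test.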
TcHisRS: 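Enzyme assay of histidyl-tRNA synthetase; the read-out is not stated. Target: Histidine-tRNA ligase, Trypanosoma cruzi CL Brener (UniProt Q4DA54). Compounds at 30 µM. Higher reads as stronger inhibition (inferred: compounds with an IC50 in retests scored well above the rest). Of about 69,000 compounds tested this way, about 31 (0.045%) reached 50% or more in at least one test.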
Pks13 thioesterase: 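Polyketide synthase Pks13, Mycobacterium tuberculosis (UniProt I6X8D2). Enzyme assay of the thioesterase domain of polyketide synthase 13; the read-out is not stated. Concentration: 30 µM. The record gives no direction; the compounds picked for IC50 retests had high values, so higher reads as stronger inhibition. Size under these conditions: about 67,000 compounds, about 300 of them at 50% or above in at least one test.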
PfKRS1: 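Lysine-tRNA ligase, Plasmodium falciparum 3D7 (UniProt Q8IDJ8). Enzyme assay of the cytosolic lysyl-tRNA synthetase in 384-well plates, read by luminescence. Tested at 30 µM. Direction is inferred from only a few compounds that gave an IC50; most scored high, so higher reads as stronger inhibition. About 69,000 compounds were tested under these conditions; 0.071% (about 49) showed 50% or more at least once.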

By UniProt entry, the sequences of proteins in these tests, tags left out. Residues count along the entry.
UniProt P9WPC5, whole entry: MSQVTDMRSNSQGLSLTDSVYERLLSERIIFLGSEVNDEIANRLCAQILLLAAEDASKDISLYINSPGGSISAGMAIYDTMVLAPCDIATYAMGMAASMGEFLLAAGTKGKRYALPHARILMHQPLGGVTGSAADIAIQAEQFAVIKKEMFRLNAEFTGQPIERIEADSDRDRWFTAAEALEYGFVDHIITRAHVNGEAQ
UniProt P9WPC3, whole entry partner: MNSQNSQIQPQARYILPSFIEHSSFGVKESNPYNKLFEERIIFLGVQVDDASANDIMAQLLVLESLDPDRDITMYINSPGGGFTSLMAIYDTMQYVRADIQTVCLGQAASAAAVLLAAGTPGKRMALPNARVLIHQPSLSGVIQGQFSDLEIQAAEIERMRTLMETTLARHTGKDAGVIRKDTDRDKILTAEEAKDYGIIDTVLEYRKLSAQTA
UniProt Q4DA54, 1-478: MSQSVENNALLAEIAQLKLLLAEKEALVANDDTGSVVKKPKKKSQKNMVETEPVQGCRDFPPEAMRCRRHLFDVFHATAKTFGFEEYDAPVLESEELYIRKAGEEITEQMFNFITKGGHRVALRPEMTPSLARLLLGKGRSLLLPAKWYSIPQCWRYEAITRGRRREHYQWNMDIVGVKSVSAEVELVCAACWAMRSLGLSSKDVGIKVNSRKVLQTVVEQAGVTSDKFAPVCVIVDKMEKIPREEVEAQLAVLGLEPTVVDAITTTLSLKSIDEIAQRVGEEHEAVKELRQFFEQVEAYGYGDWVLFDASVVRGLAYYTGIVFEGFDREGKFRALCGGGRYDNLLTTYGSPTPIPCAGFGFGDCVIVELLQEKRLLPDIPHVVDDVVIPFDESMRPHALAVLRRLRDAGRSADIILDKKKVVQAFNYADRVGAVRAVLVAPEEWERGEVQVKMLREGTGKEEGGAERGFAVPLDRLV
UniProt I6X8D2, whole entry: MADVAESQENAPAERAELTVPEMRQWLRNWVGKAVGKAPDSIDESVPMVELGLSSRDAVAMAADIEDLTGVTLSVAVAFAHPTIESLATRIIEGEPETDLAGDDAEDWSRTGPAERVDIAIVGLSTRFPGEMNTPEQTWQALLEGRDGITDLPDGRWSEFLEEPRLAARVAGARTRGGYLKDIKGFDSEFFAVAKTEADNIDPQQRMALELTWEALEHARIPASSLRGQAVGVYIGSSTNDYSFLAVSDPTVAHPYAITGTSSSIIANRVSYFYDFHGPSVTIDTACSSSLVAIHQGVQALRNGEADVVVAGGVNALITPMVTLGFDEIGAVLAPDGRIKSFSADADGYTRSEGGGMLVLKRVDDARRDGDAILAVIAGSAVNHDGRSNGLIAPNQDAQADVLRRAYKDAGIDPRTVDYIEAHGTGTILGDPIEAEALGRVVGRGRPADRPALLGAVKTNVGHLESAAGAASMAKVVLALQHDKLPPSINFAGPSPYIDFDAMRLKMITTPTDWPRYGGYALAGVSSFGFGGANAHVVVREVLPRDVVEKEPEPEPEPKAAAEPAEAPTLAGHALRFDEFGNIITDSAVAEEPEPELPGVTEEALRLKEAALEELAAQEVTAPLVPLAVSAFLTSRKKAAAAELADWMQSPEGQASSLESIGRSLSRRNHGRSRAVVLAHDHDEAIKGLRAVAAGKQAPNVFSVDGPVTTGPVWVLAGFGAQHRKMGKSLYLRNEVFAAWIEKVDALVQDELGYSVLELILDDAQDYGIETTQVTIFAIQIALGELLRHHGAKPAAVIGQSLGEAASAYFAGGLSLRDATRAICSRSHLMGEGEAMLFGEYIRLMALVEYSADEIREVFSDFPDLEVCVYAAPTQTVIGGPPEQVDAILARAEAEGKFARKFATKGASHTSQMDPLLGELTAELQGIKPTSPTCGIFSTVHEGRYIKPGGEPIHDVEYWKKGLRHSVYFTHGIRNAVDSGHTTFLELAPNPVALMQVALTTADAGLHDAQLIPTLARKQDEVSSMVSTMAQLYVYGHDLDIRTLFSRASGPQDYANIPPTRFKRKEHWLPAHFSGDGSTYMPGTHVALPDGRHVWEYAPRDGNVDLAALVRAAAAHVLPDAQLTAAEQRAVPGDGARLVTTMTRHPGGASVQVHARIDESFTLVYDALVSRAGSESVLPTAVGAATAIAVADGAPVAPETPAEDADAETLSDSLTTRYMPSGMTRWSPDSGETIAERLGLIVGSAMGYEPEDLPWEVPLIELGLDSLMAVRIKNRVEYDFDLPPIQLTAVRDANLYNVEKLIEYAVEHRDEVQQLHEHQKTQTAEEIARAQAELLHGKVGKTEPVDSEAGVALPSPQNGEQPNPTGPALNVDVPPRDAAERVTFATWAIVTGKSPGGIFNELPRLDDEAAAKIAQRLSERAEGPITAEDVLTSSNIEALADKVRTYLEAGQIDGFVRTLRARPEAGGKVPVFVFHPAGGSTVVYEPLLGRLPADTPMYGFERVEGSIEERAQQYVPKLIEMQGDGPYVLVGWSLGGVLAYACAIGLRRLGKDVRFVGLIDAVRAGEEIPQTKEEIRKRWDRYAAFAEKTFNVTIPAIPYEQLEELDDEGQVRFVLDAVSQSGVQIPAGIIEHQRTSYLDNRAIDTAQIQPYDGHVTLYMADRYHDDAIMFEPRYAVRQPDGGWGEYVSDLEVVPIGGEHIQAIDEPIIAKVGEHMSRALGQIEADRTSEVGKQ
UniProt Q8IDJ8, 1-583: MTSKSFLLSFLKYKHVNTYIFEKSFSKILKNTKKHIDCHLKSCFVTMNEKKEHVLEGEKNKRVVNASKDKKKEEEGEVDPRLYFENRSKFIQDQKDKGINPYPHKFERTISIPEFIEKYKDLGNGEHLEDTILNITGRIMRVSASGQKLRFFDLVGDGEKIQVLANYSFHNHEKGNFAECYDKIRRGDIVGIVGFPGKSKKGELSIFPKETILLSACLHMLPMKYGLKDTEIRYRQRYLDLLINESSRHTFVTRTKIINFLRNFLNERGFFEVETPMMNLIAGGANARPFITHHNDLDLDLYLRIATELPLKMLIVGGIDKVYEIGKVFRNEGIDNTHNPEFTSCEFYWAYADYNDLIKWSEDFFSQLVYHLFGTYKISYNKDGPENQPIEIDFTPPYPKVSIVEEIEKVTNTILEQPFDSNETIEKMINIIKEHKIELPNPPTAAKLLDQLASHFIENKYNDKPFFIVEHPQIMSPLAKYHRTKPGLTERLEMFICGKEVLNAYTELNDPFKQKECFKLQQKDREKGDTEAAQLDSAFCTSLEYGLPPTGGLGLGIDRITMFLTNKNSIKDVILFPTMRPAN

Values are the deposited “Percent Effect”, in %.
The controls that fix the scale are not given in the record; negative values are as filed.
Compounds were drawn at random from those tested, without regard to their results.
A dash means the value is not listed here; it may have been measured.

Compound,ClpP1P2,Toxoplasma,TcHisRS,Pks13 thioesterase,PfKRS1
COc1ccc(-n2cnnc2SCC(C)(C)O)cn1,-15.64%,-3.414%,2.075%,-9.572%,0.1557%
Cc1nnc(SCCNC(=O)CC2CCc3ccccc32)s1 (centres unmarked),0.7499%,10.07%,4.972%,-32.45%,1.487%
C[C@@H]1CN(c2nc(N)nc3c2CCC3)C[C@]1(C)O,-18.64%,1.969%,-5.882%,-23.47%,5.032%
COCCn1cnnc1C1CCCN(C(C)C)C1 (centres unmarked),3.703%,25.86%,1.493%,-14.15%,0.2381%
[H][C@@]12OCCN(Cc3cnn(C)c3)[C@@]1([H])CCC2Cn1cccn1 (some centres unmarked),-,19.97%,-,-,-
Cc1ccc(C(=O)NS(=O)(=O)c2c(Cl)cccc2Cl)c(=O)[nH]1,-14.88%,3.606%,-1.17%,-2.525%,1.12%
c1cc(CN2Cc3nccn3CC(Cn3cncn3)C2)ccn1 (centres unmarked),5.914%,-,10.05%,-1.277%,-1.205%
O=C(c1ccc(-n2cnnc2)cc1Cl)N1CCCC(O)(CO)CC1 (centres unmarked),-6.964%,0.4315%,0.6369%,-1.606%,-2.216%
Cc1cc(C(F)(F)F)nc(C2(C)CCCN2CC(N)=O)n1 (centres unmarked),-6.635%,9.695%,-7.28%,-13.87%,-2.15%
[H][C@@]12COC[C@@H](CC(=O)Nc3cnccn3)[C@]1([H])CN(C1CCOCC1)C2,-,1.862%,-,-,-
CCN(Cc1nc2c(cnn2C)c(=O)[nH]1)c1cccc(Cl)c1,1.307%,-3.249%,-5.66%,-13.03%,9.574%
O=C(c1cnc2n1CCCC2)N1CCCC1,1.536%,5.086%,5.155%,-26.47%,2.911%
CCCS(=O)(=O)N1CCN(CCOC)c2nc(C)ccc2C1.O=C(O)C(F)(F)F,-,2.989%,-,-,-
Cc1cc(NC(=O)CNC2CCc3ncnn3C2)no1 (centres unmarked),-4.966%,1.819%,5.848%,-,-1.081%
Cc1nccn1Cc1nnc(C2CCN(c3ccncc3F)CC2)n1C,7.597%,-12.1%,-4.848%,-21.84%,5.256%
CC(C)(C)c1cc(C[C@H]2CNCC[C@H]2CC(=O)NC2CCCCC2)no1,5.199%,1.232%,-0.4975%,-6.703%,-0.5474%
CC(C)(C)n1ncc2c1CCCC2NCc1cccc(C(N)=O)c1 (centres unmarked),-9.181%,14.01%,5.263%,-5.197%,6.439%
Cn1nnc2c1CCN(Cc1nccs1)C2COCc1ccccc1.O=C(O)C(F)(F)F (centres unmarked),-,7.377%,-,-,-
Cn1ccnc1CN1CCCN(C(=O)C2(C#N)CCCCC2)CC1,6.094%,3.776%,9.554%,-41.39%,6.179%
CN(C)C[C@@H]1CN(Cc2ccccc2C#N)C[C@@H]1CO,-11.02%,-0.3464%,-1.622%,6.928%,-1.343%
COC(=O)Cn1c(=O)cc(C(F)F)c2c(C)nn(CC(F)F)c21,-3.215%,14.75%,-0.8696%,-30.93%,-2.027%
Cc1cc(NC(=O)CN2CCCC(Cn3nc(C)nc3C)C2)n(C)n1 (centres unmarked),-8.785%,-2.563%,3.529%,-17.88%,-0.2135%
COc1nn(C)c2c1CCCN(C(=O)c1ccc3c(c1)OCO3)C2,-9.066%,-,-4.294%,0.01407%,1.616%
CN(C)C(=O)N1C[C@@H](C(=O)NCc2ccco2)C[C@H]2OCC[C@H]21,-7.054%,-,6.667%,-17.11%,1.533%
c1cncc(OCc2nc(C3CC3)nn2-c2ccc3c(c2)OCCO3)c1,4.845%,7.18%,2.532%,-4.446%,-0.9027%
COCCCNC(=O)CN1CCOC(c2ccccc2)C1 (centres unmarked),-15.92%,-13.11%,-4.969%,-10.66%,-0.3069%
CN(Cc1cc(=O)c(O)co1)C1CCN(c2ccc(F)cc2)CC1,-4.412%,0.3245%,6.494%,12.89%,-3.412%
Cc1noc(C2CCCN2C(=O)C2CCC2)n1 (centres unmarked),-6.917%,-15.08%,6.593%,0.6762%,2.776%
CCN1CCN(CCCNC(=O)c2cc3ccc(C)cc3nc2C)CC1,10.31%,-6.911%,-4.046%,-22.46%,3.758%
COC(=O)CCCNC(=O)N1CCc2c(F)ccc(F)c2C1,1.054%,2.356%,4.372%,-21.78%,0.533%
COc1cc(Cl)c(C)cc1NC(=O)CCNc1ccc(C#N)cn1,-5.908%,19.56%,4.255%,0.2044%,-3.632%
O=C1NCCCC12CCN(Cc1ccc(-c3ccccc3)s1)C2 (centres unmarked),-10.41%,12.52%,6.087%,-0.3617%,-2.944%
COC(=O)C(CNC(=O)Nc1nncs1)Cc1cccc(C)c1 (centres unmarked),-0.05423%,2.544%,3.804%,-24.09%,4.242%
CC(C)(C)NC(=O)COc1ccc(CNCCOc2ccccn2)cc1,-11.24%,3.654%,2.632%,-29.73%,6.212%
COc1cc(N2CCCC3(CCN(c4cncnc4)C3=O)C2)ncn1 (centres unmarked),-3.074%,-3.067%,2.062%,-16.63%,4.934%
O=S(=O)(Nc1cnc(N2CCCC2)nc1)c1ccc(C(F)(F)F)cc1,-13.29%,-16.74%,5.366%,5.826%,1.12%
CC(C)c1nc2n(n1)CC(NCc1nc(-c3ccccn3)no1)CC2 (centres unmarked),-3.549%,3.59%,1.681%,-13.71%,6.173%
Cc1cc(C)n(C2CCCN(C(=O)CCNS(C)(=O)=O)C2)n1 (centres unmarked),12.47%,-5.681%,3.383%,-12.05%,-0.1936%
Cn1c(NC(=O)CNC(=O)C2CCCC2)nc2cc(Cl)ccc21,-9.464%,-3.018%,3.804%,-29.65%,1.437%
Cc1nn(C)c(Cl)c1C1CCCN1CC(=O)NC1CCCC1 (centres unmarked),-10.68%,22.11%,7.522%,-9.487%,5.792%
Cc1cc(CN2CC[C@H]3C[C@@H](c4nc(C5CC5)cs4)O[C@@H]3C2)no1,-9.797%,-,3.315%,-15.53%,3.195%
CS(=O)(=O)CCC(=O)Nc1cc(Cl)c(Cl)cn1,1.931%,-3.662%,6.667%,13.23%,-3.733%
O=c1cc(CN(CCO)C2CC2)nc2ccc(Cl)cn12,5.101%,-8.992%,-2.273%,6.627%,-0.9282%
COc1ccc(OC)c(S(=O)(=O)NC(=O)C(C)OC)c1 (centres unmarked),-15.28%,11.96%,8.333%,9.526%,2.509%
CN1CCN(C(=O)c2ccc(=O)n(C)c2)Cc2ccccc21,5.887%,3.016%,0.3831%,-8.67%,-6.378%
Cc1nccc([C@@H]2C[C@@H]3CCN(Cc4c(C)noc4C)C[C@H]3O2)n1,9.376%,-,14.29%,-3.423%,6.321%
CCn1nc(C)c(NC(=O)CN2CC[C@@H](F)C2)c1C,-15.6%,-12.73%,-0.4292%,-10.23%,5.768%
CCn1cc(NC(=O)NCC(c2cccc(OC)c2)N(C)C)cn1 (centres unmarked),-21.34%,8.491%,4.142%,-17.2%,2.734%
CN1CCC2(CC1)OC(C(=O)NCc1cccnc1)Cn1ccnc12 (centres unmarked),-7.165%,-17.06%,10.78%,-10.11%,2.597%

Some entries from above, unchanged:

With Cc1nccc([C@@H]2C[C@@H]3CCN(Cc4c(C)noc4C)C[C@H]3O2)n1 the screen gave ClpP1P2: 9.376%; TcHisRS: 14.29%; Pks13 thioesterase: -3.423%; PfKRS1: 6.321%.
With CN1CCN(C(=O)c2ccc(=O)n(C)c2)Cc2ccccc21 the screen gave ClpP1P2: 5.887%; Toxoplasma: 3.016%; TcHisRS: 0.3831%; Pks13 thioesterase: -8.67%; PfKRS1: -6.378%.
With CN1CCC2(CC1)OC(C(=O)NCc1cccnc1)Cn1ccnc12 (centres unmarked) the screen gave ClpP1P2: -7.165%; Toxoplasma: -17.06%; TcHisRS: 10.78%; Pks13 thioesterase: -10.11%; PfKRS1: 2.597%.
With COC(=O)Cn1c(=O)cc(C(F)F)c2c(C)nn(CC(F)F)c21 the screen gave ClpP1P2: -3.215%; Toxoplasma: 14.75%; TcHisRS: -0.8696%; Pks13 thioesterase: -30.93%; PfKRS1: -2.027%.

The values are deposited in ChEMBL (CHEMBL3988442, “University of Dundee, Small-Polar-MMV Screening Library” (2021)).